This is an account of results in PubChem BioAssay AID2685 (National Center for Advancing Translational Sciences (NCATS), 2010).

The other results are listed elsewhere or left out. These are further read-outs of the screen, such as a control signal, another cell line or another target. No call is given for them. The list favours compounds with an active or inconclusive main result. Potencies come from curve fits of mixed quality, noted in brackets.

The test is described as follows: qHTS Assay for Lipid Storage Modulators in Drosophila S3 Cells.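 On cell number change: cells counted by Cell Tracker Red CMTPX staining in the red channel.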 To be noted: BODIPY lipid droplet fluorescence, 18-24 h; for cell number change: measured here: cell count max response, cells fed with added oleic acid. The method in brief: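 Drosophila S3 cells loaded with oleic acid (400 uM, as added) and compounds at several concentrations; lipid droplets imaged by 488-nm laser-scanning cytometry, 500–530 nm intensity and object ratio to cell channel. Percent activity normalized to 20 uM Triacsin C.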

Setting [1] is: measured here: lipid fluorescence (Fed channel) AC50, cells fed with added oleic acid.
Setting [2] is: measured here: cell number channel AC50, cells fed with added oleic acid.

As to `CC(C)CCN1CCC(N)=NC1=O`, the cell number change was determined as 39.4%. Under setting [1], the concentration at half-maximal activity (AC50) was 29.1 µM [rising, single point].

With `O=C(Nc1ccc(Cl)cc1)c1ccncc1`, the cell number change is -5.99%. Moreover, the AC50 under setting [2] is 0.731 µM [rising, single point].

Consider `COCC(=O)n1nc(-c2ccccc2)nc1NCc1cccs1`, for which the cell number change was 21.1%. The AC50 under setting [2] is 0.13 µM [rising, full curve, poor fit]. The AC50 under setting [1] is 0.0116 µM [rising, full curve].

On to `Cc1cccc(NC(=O)CN2CCN(CC(=O)NCc3ccc(Cl)cc3Cl)CC2)c1C`, for which the cell number change stood at 15.6%.

As to `O=C(NCC1CCCO1)c1ccc(CS(=O)(=O)c2ccc(Cl)cc2)o1` (stereo not given), the cell number change was found to be 19.9%.

As to `Cc1sc2ncnc(NC(C)C(=O)O)c2c1C` (stereo not given), the AC50 under setting [1] was 29.1 µM [rising, single point].

On to `O=C(CS(=O)(=O)c1ccccc1)N1CCCCCC1`, for which the AC50 under setting [1] is 29.1 µM [falling, single point].

Take `Cc1ccc(S(=O)(=O)c2c(COC(=O)c3cccc(Cl)c3)c(-c3ccccc3)nn2C)cc1`: the AC50 under setting [2] is 3.26 µM [rising, partial curve] and the AC50 under setting [1] was 4.61 µM [rising, partial curve].

Turning to `CCOC(=O)C1=C(COC(=O)/C=C/c2ccc(OC)c(OC)c2)NC(=O)NC1C` (stereo not given), the AC50 by setting is: under setting [2], 2.06 µM [rising, partial curve]; under setting [1], 1.46 µM [falling, partial curve, poor fit].

In the case of `Clc1cccc(/C=N/Nc2ncnc3ccccc23)c1`, the cell number change is -37.2%. In addition, the AC50 under setting [2] was 6.51 µM [falling, single point].

Take `COc1cccc(NC(=O)c2ocnc2C)c1`: the cell number change was -8.71%. For the same compound, the half-maximal activity concentration (AC50) under setting [1] is 0.13 µM [falling, full curve, poor fit].

As for `COc1ccc(N2CC(C(=O)Nc3ccccc3C(=O)NC3CC3)CC2=O)cc1` (stereo not given), the cell number change was -20.8%. Moreover, the AC50 under setting [1] was 29.1 µM [rising, single point].

For `Cc1cc(C)n(-c2cc(N3CCN(C(=O)c4cccc(F)c4)CC3)ccc2[N+](=O)[O-])n1`, the cell number change is -45.9%. Further, under setting [2], the AC50 was 14.6 µM [falling, partial curve, poor fit]. Also, the AC50 under setting [1] is 10.3 µM [falling, partial curve, poor fit].

On to `CCC1(CC)NC(=O)N(CC(=O)OCC(=O)Nc2ccccc2OC(F)F)C1=O`, for which the cell number change was 7.29%. For the same compound, under setting [1], the AC50 is 0.326 µM [rising, partial curve, poor fit].

Turning to `O=C(c1ccc(N2CCOCC2)cc1)c1cccs1`, the AC50 under setting [2] was 3.66 µM [rising, partial curve] and the half-maximal activity concentration (AC50) under setting [1] is 0.58 µM [rising, single point].

Turning to `CC(C)CNS(=O)(=O)c1ccc(CCC(=O)N2CCN(Cc3ccc4c(c3)OCO4)CC2)cc1`, the cell number change was -33.7%. Further, the AC50 under setting [2] is 8.2 µM [falling, partial curve, poor fit]. For the same compound, the AC50 under setting [1] is 14.6 µM [falling, partial curve, poor fit].

Consider `CN1CCCC(OC(=O)c2ccc(C#N)cc2)C1` (stereo not given), for which the cell number change is -2.01%.

For the compound `O=C(Nc1ccc(-c2noc(COc3ccccc3Cl)n2)cc1)c1ccco1`, the cell number change is -55.5%. In addition, under setting [2], the AC50 was 29.1 µM [falling, single point]. Under setting [1], the AC50 is 29.1 µM [falling, single point].

For `COc1cc(OC)cc(OC(=O)C2CCN(C(=O)c3ccc(F)cc3)CC2)c1`, the cell number change was -46.7%. The AC50 under setting [2] is 36.6 µM [falling, single point]. In addition, the half-maximal activity concentration (AC50) under setting [1] is 3.66 µM [falling, partial curve, poor fit].

As to `Cc1ccc(NC(=O)c2ccc3nccnc3c2)c(C)c1`, the cell number change was -4.58%.

Consider `O=C(NNC(=O)C12CC3CC(CC(Cl)(C3)C1)C2)c1ccncc1`, for which the cell number change is -8%. The AC50 under setting [1] was 6.51 µM [rising, single point].

In the case of `Nc1ccccc1SSc1ccccc1N`, the cell number change is -70%. Also, the AC50 under setting [2] was 16.4 µM [falling, single point]. The AC50 under setting [1] was 9.2 µM [falling, partial curve].

As to `CCc1nnc(NC(=O)c2nc(S(=O)(=O)Cc3ccc(C)cc3)ncc2Cl)s1`, the cell number change was -32.3%. In addition, the AC50 under setting [2] is 2.06 µM [falling, full curve, poor fit]. Moreover, the AC50 under setting [1] is 5.8 µM [falling, full curve].

As to `C=CC[N+](C)(C)CCCNC(=O)/C=N/O`, the cell number change was -5.43%.

On to `COc1ccc(-n2cnnc2SCc2ncc(-c3ccccc3)o2)cc1`, for which the cell number change was -4.38%.

On to `COc1cc(C(=O)NCC(=O)NCCN2C(=O)S/C(=C\c3ccc4c(c3)OCO4)C2=O)cc(OC)c1OC`, for which the cell number change was -42.9%. The AC50 under setting [2] is 9.2 µM [falling, partial curve]. Under setting [1], the AC50 was 16.4 µM [falling, partial curve].

With `COc1ccc(NC(=O)c2cccc(NC(=O)c3ccco3)c2)c(OC)c1`, the cell number change came to 3.71%. In addition, under setting [2], the AC50 is 0.206 µM [rising, full curve, poor fit]. Also, the AC50 under setting [1] was 2.91 µM [rising, partial curve].

For the compound `COC(=O)c1ccc(CSc2nc(-c3ccco3)cc(C(F)(F)F)n2)o1`, the cell number change was -32.8%. Moreover, the AC50 under setting [2] is 32.6 µM [falling, single point].

`Cc1ccccc1CC(=O)NCC1CCCCC1`: the cell number change was 1.65%. Moreover, the AC50 under setting [1] is 29.1 µM [rising, single point].

With `O=C1CN(C(=O)NCC(=O)N[C@@H](Cc2ccccc2)C(=O)O)c2ccccc2N1`, the cell number change turned out to be 41.7%. Moreover, the AC50 under setting [2] was 23.1 µM [rising, partial curve, poor fit].

`CCOc1ccccc1N1CCN(c2ncnc3scc(-c4ccc(OC)cc4)c23)CC1`: the cell number change was -7.75%. Besides, under setting [1], the AC50 is 3.16 µM [rising, single point].

For `CCOC(=O)c1sc(NC(=O)CCN2CCOCC2)c(C(=O)OCC)c1C`, the cell number change is -7.24%. The AC50 under setting [1] was 2.31 µM [rising, single point].

Regarding `CCOC(=O)c1c(C)[nH]c(C(=O)C(C)OC(=O)c2oc3ccccc3c2COC)c1C` (stereo not given), the cell number change came out at 78.6%. Moreover, the AC50 under setting [2] is 13 µM [rising, partial curve].

Take `Cc1nnc(SCC(=O)N2CCc3ccccc3C2)n1-c1ccccc1`: the cell number change was -4.66%. Also, the AC50 under setting [1] is 1.64 µM [falling, partial curve].

In the case of `CN(Cc1ccccc1)C(=S)NC(=O)c1ccc(-c2ccccc2)cc1`, the cell number change is -15.7%. Besides, under setting [1], the half-maximal activity concentration (AC50) is 18.4 µM [falling, single point].

`CCn1c2ccccc2c2cc(NC(=O)c3cccc([N+](=O)[O-])c3)ccc21`: the cell number change came to 7.42%.

Take `COc1cc(C2C(C#N)=C(N)N(Nc3ccccc3)C3=C2C(=O)CC(C)(C)C3)ccc1OCc1ccccc1` (stereo not given): the cell number change was -21.3%. Moreover, the AC50 under setting [2] is 0.0231 µM [rising, single point]. The AC50 under setting [1] is 29.1 µM [falling, single point].
